US20250154171A1, “RAS INHIBITORS” (Revolution Medicines, Inc., priority 2023, published 2025)
Some of these results come from one statement about several compounds together.

Sequences of proteins named here, by UniProt entry; tags and fusion partners are left off. A change or cut given only in a name is not applied to a line headed by its entry. Residues count along the entry.
UniProt P01116, 1-188 isoform P01116-2 G12V: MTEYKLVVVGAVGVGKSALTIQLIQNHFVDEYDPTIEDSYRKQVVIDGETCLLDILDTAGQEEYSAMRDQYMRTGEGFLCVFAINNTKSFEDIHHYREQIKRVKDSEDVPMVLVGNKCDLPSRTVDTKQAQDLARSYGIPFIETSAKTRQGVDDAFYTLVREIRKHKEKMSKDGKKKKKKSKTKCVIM
UniProt P62937, whole entry: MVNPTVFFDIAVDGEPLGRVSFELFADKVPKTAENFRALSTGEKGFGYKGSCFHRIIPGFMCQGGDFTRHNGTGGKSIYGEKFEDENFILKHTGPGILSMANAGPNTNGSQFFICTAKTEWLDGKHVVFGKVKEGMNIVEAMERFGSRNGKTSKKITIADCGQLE

What was measured:
[1] = system: Capan-1 (K-Ras G12V); experiment: CellTiter-Glo cell viability assay, Capan-1; assay type: cell-based, human; settings: 5-day treatment, Capan-1 versus A375
[2] = biological target: K-RasG12V (Homo sapiens, UniProt P01116+P62937, G12V); experiment: Disruption of BRAF RBD interaction with K-Ras (TR-FRET / MOA assay), K-RasG12V; assay type: biochemical; settings: TR-FRET with cyclophilin A and GST-BRAF RBD, read-out: IC50 with respect to K-RasG12V (disruption of BRAF RBD interaction)

Structure (SMILES) | decrease in cell viability with respect to KRAS G12V (Capan-1) versus wild-type KRAS (A375) [1] | IC50 [2]
CCO[C@@H]1c2nc(cs2)-c2ccc3c(c2)c(c(-c2cc(N4CCN(C)CC4)cnc2[C@H](C)OC)n3CCOC(C)C)CC(C)(C)COC(=O)[C@@H]2CCCN(N2)C(=O)[C@H]1NC(=O)[C@@H]1[C@@H](C)[C@H]1c1ccccn1 (racemic) [Example A853] | greater decrease in cell viability | < 1000 nM
CCO[C@@H]1c2nc(cs2)-c2ccc3c(c2)c(c(-c2cc(N4CCN(C5CC5)CC4)cnc2[C@H](C)OC)n3CCOC2CCOCC2)CC(C)(C)COC(=O)[C@@H]2CCCN(N2)C(=O)[C@H]1NC(=O)N1CC[C@H]1C (racemic) [Example A854] | greater decrease in cell viability | < 1000 nM
CCO[C@@H]1c2nc(cs2)-c2ccc3c(c2)c(c(-c2cc(N4CCN(C)CC4)cnc2[C@H](C)OC)n3CCOC2CCOCC2)CC(C)(C)COC(=O)[C@@H]2CCCN(N2)C(=O)[C@H]1NC(=O)[C@H]1[C@H](C)[C@@H]1C (racemic) [Example A855] | greater decrease in cell viability | < 1000 nM
CO[C@@H](C)c1ncc(N2CCN(C)CC2)cc1-c1c2c3cc(ccc3n1CCOC1CCOCC1)-c1csc(n1)[C@@H](N1CCOCC1)[C@H](NC(=O)[C@H]1[C@H](C)[C@@H]1C)C(=O)N1CCC[C@H](N1)C(=O)OCC(C)(C)C2 (racemic) [Example A856] | greater decrease in cell viability | < 1000 nM
CO[C@@H](C)c1ncc(N2CCN(C3CC3)CC2)cc1-c1c2c3cc(ccc3n1CCOC1CCOCC1)-c1csc(n1)[C@@H](OCC(F)F)[C@H](NC(=O)[C@H]1[C@H](C)[C@@H]1C)C(=O)N1CCC[C@H](N1)C(=O)OCC(C)(C)C2 (racemic) [Example A857] | greater decrease in cell viability | < 1000 nM
CO[C@@H](C)c1ncc([C@@H]2CCN3CCOCC3C2)cc1-c1c2c3cc(ccc3n1CCOC(C)C)-c1csc(n1)[C@@H](OCC(F)F)[C@H](NC(=O)[C@@H]1[C@H](C)[C@@H]1C(C)C)C(=O)N1CCC[C@H](N1)C(=O)OCC(C)(C)C2 (mixture of isomers) [Example A858] | greater decrease in cell viability | < 1000 nM
CO[C@@H](C)c1ncc([C@@H]2CCN3CCOCC3C2)cc1-c1c2c3cc(ccc3n1CCOC(C)C)-c1csc(n1)[C@@H](OCC(F)F)[C@H](NC(=O)N1CC[C@H]1[C@@H](C)O)C(=O)N1CCC[C@H](N1)C(=O)OCC(C)(C)C2 (mixture of isomers) [Example A859] | greater decrease in cell viability | < 1000 nM
CCO[C@@H]1c2nc(cs2)-c2ccc3c(c2)c(c(-c2cc([C@@H]4CCN5CCOCC5C4)cnc2[C@H](C)OC)n3CCOC(C)C)CC(C)(C)COC(=O)[C@@H]2CCCN(N2)C(=O)[C@H]1NC(=O)N1C[C@@H]2COCC[C@@H]21 (mixture of isomers) [Example A860] | greater decrease in cell viability | < 1000 nM
CCO[C@@H]1c2nc(cs2)-c2ccc3c(c2)c(c(-c2cc([C@@H]4CCN5CCOC[C@@H]5C4)cnc2[C@H](C)OC)n3CCOC(C)C)CC(C)(C)COC(=O)[C@@H]2CCCN(N2)C(=O)[C@H]1NC(=O)[C@H]1[C@H](C)[C@@H]1C(C)C (racemic) [Example A862] | greater decrease in cell viability | < 1000 nM
CCO[C@@H]1c2nc(cs2)-c2ccc3c(c2)c(c(-c2cc([C@@H]4CCN5CCOC[C@@H]5C4)cnc2[C@H](C)OC)n3CCOC(C)C)CC(C)(C)COC(=O)[C@@H]2CCCN(N2)C(=O)[C@H]1NC(=O)[C@@H]1[C@@H](C)[C@H]1C(C)C (racemic) [Example A863] | greater decrease in cell viability | < 1000 nM
CO[C@@H](C)c1ncc([C@@H]2CCN3CCOCC3C2)cc1-c1c2c3cc(ccc3n1CCOC(C)C)-c1csc(n1)[C@@H](OCC(F)F)[C@H](NC(=O)N1C[C@@H]3COCC[C@@H]31)C(=O)N1CCC[C@H](N1)C(=O)OCC(C)(C)C2 (mixture of isomers) [Example A864] | greater decrease in cell viability | < 1000 nM
CCO[C@@H]1c2nc(cs2)-c2ccc3c(c2)c(c(-c2cc(N4CCN(C)CC4)cnc2[C@H](C)OC)n3CCOC(C)C)CC(C)(C)COC(=O)[C@@H]2CCCN(N2)C(=O)[C@H]1NC(=O)N1CC[C@H]1C (racemic) [Example A865] | greater decrease in cell viability | < 1000 nM
CCO[C@@H]1c2nc(cs2)-c2ccc3c(c2)c(c(-c2cc(N4CCN(C)CC4)cnc2[C@H](C)OC)n3CCOC(C)C)CC(C)(C)COC(=O)[C@@H]2CCCN(N2)C(=O)[C@H]1NC(=O)N1CC[C@H]1COC (racemic) [Example A866] | greater decrease in cell viability | < 1000 nM
CCO[C@@H]1c2nc(cs2)-c2ccc3c(c2)c(c(-c2cc(N4CCN(C)CC4)cnc2[C@H](C)OC)n3CCOC(C)C)CC(C)(C)COC(=O)[C@@H]2CCCN(N2)C(=O)[C@H]1NC(=O)[C@@H]1C[C@H]1c1ccccn1 (racemic) [Example A867] | greater decrease in cell viability | < 1000 nM
CCO[C@@H]1c2nc(cs2)-c2ccc3c(c2)c(c(-c2cccnc2[C@H](C)OC)n3CCOC(C)C)CC(C)(C)COC(=O)[C@@H]2CCCN(N2)C(=O)[C@H]1NC(=O)[C@H]1[C@H](C)[C@@H]1C (racemic) [Example A868] | greater decrease in cell viability | < 1000 nM
[2H]C([2H])([2H])C1OC2(C(=O)NC3C(=O)N4CCCC(N4)C(=O)OCC(C)(C)Cc4c(-c5cc(N6CCN(C7CC7)CC6)cnc5C(C)OC)n(CCOC5CCOCC5)c5ccc(cc45)-c4csc(n4)C3OCC)CC1C2 (stereo not shown) [Example A264] | greater decrease in cell viability | < 1000 nM
COC(C)c1ncc(C2CCN(C3CC3)CC2)cc1-c1c2c3cc(ccc3n1CCOC1CCOC(C)(C)C1)-c1csc(n1)C(N1CC3(CCC3)C1)C(NC(=O)C13CC(C1)C(C)O3)C(=O)N1CCCC(N1)C(=O)OCC(C)(C)C2 (stereo not shown) [Example A274] | greater decrease in cell viability | < 1000 nM
CO[C@@H](C)c1ncc(N2CCN(C3CC3)CC2)cc1-c1c2c3cc(ccc3n1CCOC1CCOCC1)-c1csc(n1)[C@@H](N1CC3(COC3)C1)[C@H](NC(=O)C13CC(C1)[C@H](C)O3)C(=O)N1CCC[C@H](N1)C(=O)OCC(C)(C)C2 [Example A433] | greater decrease in cell viability | < 1000 nM
CO[C@@H](C)c1ncc(N2CCN(C3CC3)CC2)cc1-c1c2c3cc(ccc3n1CCOC1CCOCC1)-c1csc(n1)[C@@H](N1CC3(COC3)C1)[C@H](NC(=O)C13CC(C1)[C@@H](C)O3)C(=O)N1CCC[C@H](N1)C(=O)OCC(C)(C)C2 [Example A434] | greater decrease in cell viability | < 1000 nM
CCO[C@@H]1c2coc(n2)-c2ccc3c(c2)c(c(-c2cc(N4CCN(C5CC5)CC4)cnc2[C@H](C)OC)n3CCOC2CCOCC2)CC(C)(C)COC(=O)[C@H]2NN(C(=O)[C@H]1NC(=O)[C@H]1[C@H](C)[C@@H]1[C@H]1CCCO1)C1CC2C1 [Example A571] | greater decrease in cell viability | < 1000 nM
CCO[C@@H]1c2nc(cs2)-c2ccc3c(c2)c(c(-c2cc(N4CCN(C5CC5)CC4)cnc2[C@H](C)OC)n3CCC(=O)N2CCOCC2)CC(C)(C)COC(=O)[C@@H]2CCCN(N2)C(=O)[C@H]1NC(=O)[C@H]1[C@H](C)[C@@H]1C [Example A575] | greater decrease in cell viability | < 1000 nM
CO[C@@H](C)c1ncc(N2CCN(C3CC3)CC2)cc1-c1c2c3cc(ccc3n1CCOC1CCOCC1)-c1csc(n1)[C@@H](N1CCCC1)[C@H](NC(=O)[C@@H]1[C@@H](C)[C@H]1c1cn(C)cn1)C(=O)N1CCC[C@H](N1)C(=O)OCC(C)(C)C2 [Example A578] | greater decrease in cell viability | < 1000 nM
CCO[C@@H]1c2nc(cs2)-c2ccc3c(c2)c(c(-c2cc(N4CCN(C5CC5)CC4)cnc2[C@H](C)OC)n3CCOC2CCOCC2)CC(C)(C)COC(=O)[C@@H]2CCCN(N2)C(=O)[C@H]1NC(=O)[C@@H]1[C@@H](C)[C@H]1c1cn(C)cn1 [Example A579] | greater decrease in cell viability | < 1000 nM
COC(C)c1ncc(N2CCN(C3CC3)CC2)cc1-c1c2c3cc(ccc3n1CCOC1CCOCC1)-c1coc(n1)C(N1CCOCC1)C(NC(=O)C1C(C)C1c1ccncn1)C(=O)N1NC(C(=O)OCC(C)(C)C2)C2CC1C2 (stereo not shown) [Example A587] | greater decrease in cell viability | < 1000 nM
CO[C@@H](C)c1ncc(N2CCN(C3CC3)CC2)cc1-c1c2c3cc(ccc3n1CCOC1CCOCC1)-c1csc(n1)[C@@H](OCC(F)F)[C@H](NC(=O)C13CC(C1)[C@H](C)O3)C(=O)N1CCC[C@H](N1)C(=O)OCC(C)(C)C2 [Example A588] | greater decrease in cell viability | < 1000 nM
CO[C@@H](C)c1ncc(N2CCN(C3CC3)CC2)cc1-c1c2c3cc(ccc3n1CCOC1CCOCC1)-c1csc(n1)[C@@H](OCC(F)F)[C@H](NC(=O)C13CC(C1)[C@@H](C)O3)C(=O)N1CCC[C@H](N1)C(=O)OCC(C)(C)C2 [Example A589] | greater decrease in cell viability | < 1000 nM
